Some of the results follow. Single values are uncertain, as repeats are few or missing.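 Cells were imaged in 1,536-well plates, and nuclei stained with an antibody against cleaved PARP were counted against all DNA-stained nuclei to give the apoptosis fraction. Screening doses were chosen to leave most cells alive, and resting and induced cleaved-PARP levels differ strongly between cell lines.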
Columns and labels:
Assay in all cases: cleaved PARP positive nuclei fraction relative to DMSO control; melanoma cells; higher = more apoptosis
Conditions in all cases: library dose: low library concentration; 72 h
COLO792 = test system: COLO792
COLO800 = test system: COLO800
COLO829 = test system: COLO829
G361 = test system: G361
IPC-298 = test system: IPC-298
IST-MEL1 = test system: IST-MEL1
LB2518-MEL = test system: LB2518-MEL
LOXIMVI = test system: LOXIMVI
MEL-HO = test system: MEL-HO

Compound	cleaved PARP positive nuclei fraction (COLO792)	cleaved PARP positive nuclei fraction (COLO800)	cleaved PARP positive nuclei fraction (COLO829)	cleaved PARP positive nuclei fraction (G361)	cleaved PARP positive nuclei fraction (IPC-298)	cleaved PARP positive nuclei fraction (IST-MEL1)	cleaved PARP positive nuclei fraction (LB2518-MEL)	cleaved PARP positive nuclei fraction (LOXIMVI)	cleaved PARP positive nuclei fraction (MEL-HO)
N.N.[Cl][Pt][Cl] [cisplatin] + C[C@@H]1CCN(C(=O)CC#N)C[C@@H]1N(C)c1ncnc2[nH]ccc12 [CP690550] (first compound 1.6 µM, partner dose 1 µM)	111%	34%	122%	100%	181%	66.4%	101%	21.9%	128%
C[As](C)SC[C@H](NC(=O)CC[C@H](N)C(=O)O)C(=O)NCC(=O)O [Darinaparsin] + COc1cc2c(Oc3ccc4[nH]c(C)cc4c3F)ncnc2cc1OCCCN1CCCC1 [cediranib] (first compound 0.4 µM, partner dose 0.4 µM)	107%	58.6%	42.5%	116%	162%	80.3%	89%	106%	124%
Cn1cc(C2=C(c3cn(C4CCN(Cc5ccccn5)CC4)c4ccccc34)C(=O)NC2=O)c2ccccc21 [Enzastaurin] + Cc1cc(N2CCOCC2)cc2[nH]c(-c3c(NC[C@@H](O)c4cccc(Cl)c4)cc[nH]c3=O)nc12 [BMS536924] (first compound 0.8 µM, partner dose 0.2 µM)	51.1%	90.3%	110%	84%	45.6%	99.7%	106%	77.8%	174%
Cn1cc(C2=C(c3cn(C4CCN(Cc5ccccn5)CC4)c4ccccc34)C(=O)NC2=O)c2ccccc21 [Enzastaurin] + O=C(Nc1cccc(Cl)c1)Nc1ncc(CCNc2ncnc3ccsc23)s1 [SNS314] (first compound 0.8 µM, partner dose 0.0008 µM)	107%	245%	95.4%	114%	87.4%	54.2%	96%	166%	56.1%
N.N.[Cl][Pt][Cl] [cisplatin] + CO[C@@H]1[C@H](N(C)C(=O)c2ccccc2)C[C@H]2O[C@]1(C)n1c3ccccc3c3c4c(c5c6ccccc6n2c5c31)C(=O)NC4 [Midostaurin] (first compound 1.6 µM, partner dose 0.08 µM)	93.5%	72.4%	118%	133%	46.6%	366%	98.6%	68.2%	153%
Cn1cc(C2=C(c3cn(C4CCN(Cc5ccccn5)CC4)c4ccccc34)C(=O)NC2=O)c2ccccc21 [Enzastaurin] + O=C(CCCCCCC(=O)Nc1ccccc1)NO [vorinostat] (first compound 0.8 µM, partner dose 0.08 µM)	149%	29.4%	60%	122%	89.2%	101%	93.6%	62.3%	34.8%
Cn1cc(C2=C(c3cn(C4CCN(Cc5ccccn5)CC4)c4ccccc34)C(=O)NC2=O)c2ccccc21 [Enzastaurin] + Cc1ccc(NC(=O)c2cccc(N(C)C)c2)cc1NC(=O)c1ccc(O)cc1 [ZM336372] (first compound 0.8 µM, partner dose 2 µM)	64%	46.5%	106%	43.3%	43.8%	47.2%	428%	41.2%	106%
C[As](C)SC[C@H](NC(=O)CC[C@H](N)C(=O)O)C(=O)NCC(=O)O [Darinaparsin] + COc1cc(Nc2ncc(F)c(Nc3ccc4c(n3)NC(=O)C(C)(C)O4)n2)cc(OC)c1OC [Tamatinib] (first compound 0.4 µM, partner dose 0.4 µM)	244%	68.8%	145%	104%	238%	98.1%	198%	194%	144%
C[C@]12O[C@H](C[C@]1(O)CO)n1c3ccccc3c3c4c(c5c6ccccc6n2c5c31)CNC4=O [Lestaurtinib] + O=C(O)c1ccc(-c2c[nH]c3ncc(-c4ccccc4)cc23)cc1C1CCCC1 [GSK650394] (first compound 0.004 µM, partner dose 0.16 µM)	153%	69.3%	118%	88.4%	102%	179%	101%	51%	50.3%
Cn1cc(C2=C(c3cn(C4CCN(Cc5ccccn5)CC4)c4ccccc34)C(=O)NC2=O)c2ccccc21 [Enzastaurin] + O=C(O)c1ccc(-c2c[nH]c3ncc(-c4ccccc4)cc23)cc1C1CCCC1 [GSK650394] (first compound 0.8 µM, partner dose 0.16 µM)	131%	82.8%	97.5%	86.4%	22.3%	203%	44%	493%	147%
N.N.[Cl][Pt][Cl] [cisplatin] + Cn1cncc1[C@@](N)(c1ccc(Cl)cc1)c1ccc2c(c1)c(-c1cccc(Cl)c1)cc(=O)n2C [tipifarnib] (first compound 1.6 µM, partner dose 0.01 µM)	93.9%	73.2%	169%	107%	90.6%	51.9%	322%	75.6%	65.8%
